From PMC5558016 come the findings set out here.

What all share (assay): co-IP; HEK293T cells co-transfected with GFP-STIL and Flag-tagged RTTN constructs; NP-40 lysis buffer (50 mM Tris-HCl pH 8.0, 150 mM NaCl, 1% NP-40); IP 2 h at 4 °C (anti-Flag in Fig. 7f), protein-G-sepharose, immunoblot
A general note: In western blotting, separated proteins are transferred to a membrane and probed.

Experiment [1] deals with T1, Flag-RTTN-C (the carboxy-terminal region, aa 1343–2226) (human) (UniProt Q86VV8).
T1 sequence: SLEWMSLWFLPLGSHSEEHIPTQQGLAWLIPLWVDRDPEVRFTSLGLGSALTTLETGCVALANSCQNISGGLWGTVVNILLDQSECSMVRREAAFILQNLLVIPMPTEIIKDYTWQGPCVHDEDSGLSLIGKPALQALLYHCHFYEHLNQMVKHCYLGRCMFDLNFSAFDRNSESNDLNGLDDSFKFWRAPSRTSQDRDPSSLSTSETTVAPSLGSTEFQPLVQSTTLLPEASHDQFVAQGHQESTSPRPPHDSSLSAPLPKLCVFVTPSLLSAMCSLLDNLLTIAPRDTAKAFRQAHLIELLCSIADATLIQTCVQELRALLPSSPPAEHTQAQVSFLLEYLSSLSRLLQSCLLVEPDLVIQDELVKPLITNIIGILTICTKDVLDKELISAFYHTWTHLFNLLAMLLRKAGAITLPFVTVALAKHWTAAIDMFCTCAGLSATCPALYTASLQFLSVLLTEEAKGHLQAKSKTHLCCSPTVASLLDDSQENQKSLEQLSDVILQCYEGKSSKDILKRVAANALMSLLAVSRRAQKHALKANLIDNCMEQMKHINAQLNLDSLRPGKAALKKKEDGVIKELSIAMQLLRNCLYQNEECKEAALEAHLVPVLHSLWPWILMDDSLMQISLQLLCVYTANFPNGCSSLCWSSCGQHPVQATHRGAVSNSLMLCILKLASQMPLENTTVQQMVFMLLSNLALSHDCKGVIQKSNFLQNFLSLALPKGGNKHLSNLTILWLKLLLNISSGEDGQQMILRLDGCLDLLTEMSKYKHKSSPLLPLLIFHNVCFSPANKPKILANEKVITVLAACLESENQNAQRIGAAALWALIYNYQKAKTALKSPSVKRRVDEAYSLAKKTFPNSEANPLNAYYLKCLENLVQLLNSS

Experiment [2] concerns the target T2, Flag-RTTN-M (the middle region, aa 748–1510) (human) (UniProt Q86VV8).
T2 sequence: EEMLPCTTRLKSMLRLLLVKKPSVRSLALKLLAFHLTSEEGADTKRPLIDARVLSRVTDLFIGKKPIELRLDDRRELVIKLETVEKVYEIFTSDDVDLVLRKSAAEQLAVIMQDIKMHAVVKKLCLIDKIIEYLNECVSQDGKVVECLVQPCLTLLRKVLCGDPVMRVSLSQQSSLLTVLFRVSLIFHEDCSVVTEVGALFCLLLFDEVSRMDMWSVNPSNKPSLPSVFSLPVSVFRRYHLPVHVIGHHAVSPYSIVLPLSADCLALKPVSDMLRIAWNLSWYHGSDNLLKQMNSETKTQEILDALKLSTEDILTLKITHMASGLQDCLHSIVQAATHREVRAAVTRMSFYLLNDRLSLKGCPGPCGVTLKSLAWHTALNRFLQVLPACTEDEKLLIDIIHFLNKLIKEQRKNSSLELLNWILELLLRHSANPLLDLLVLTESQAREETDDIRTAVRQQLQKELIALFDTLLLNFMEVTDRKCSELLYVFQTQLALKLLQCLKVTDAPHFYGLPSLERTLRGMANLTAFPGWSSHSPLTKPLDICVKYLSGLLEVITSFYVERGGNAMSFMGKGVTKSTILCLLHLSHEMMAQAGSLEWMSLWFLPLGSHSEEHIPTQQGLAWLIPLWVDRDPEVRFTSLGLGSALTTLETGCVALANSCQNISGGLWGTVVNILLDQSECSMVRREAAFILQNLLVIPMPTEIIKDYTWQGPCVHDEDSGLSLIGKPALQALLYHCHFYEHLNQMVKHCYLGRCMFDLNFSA

The target in experiment [3] is T3, Flag-RTTN-N (A578P) mutant (human) (UniProt Q86VV8).
T3 sequence: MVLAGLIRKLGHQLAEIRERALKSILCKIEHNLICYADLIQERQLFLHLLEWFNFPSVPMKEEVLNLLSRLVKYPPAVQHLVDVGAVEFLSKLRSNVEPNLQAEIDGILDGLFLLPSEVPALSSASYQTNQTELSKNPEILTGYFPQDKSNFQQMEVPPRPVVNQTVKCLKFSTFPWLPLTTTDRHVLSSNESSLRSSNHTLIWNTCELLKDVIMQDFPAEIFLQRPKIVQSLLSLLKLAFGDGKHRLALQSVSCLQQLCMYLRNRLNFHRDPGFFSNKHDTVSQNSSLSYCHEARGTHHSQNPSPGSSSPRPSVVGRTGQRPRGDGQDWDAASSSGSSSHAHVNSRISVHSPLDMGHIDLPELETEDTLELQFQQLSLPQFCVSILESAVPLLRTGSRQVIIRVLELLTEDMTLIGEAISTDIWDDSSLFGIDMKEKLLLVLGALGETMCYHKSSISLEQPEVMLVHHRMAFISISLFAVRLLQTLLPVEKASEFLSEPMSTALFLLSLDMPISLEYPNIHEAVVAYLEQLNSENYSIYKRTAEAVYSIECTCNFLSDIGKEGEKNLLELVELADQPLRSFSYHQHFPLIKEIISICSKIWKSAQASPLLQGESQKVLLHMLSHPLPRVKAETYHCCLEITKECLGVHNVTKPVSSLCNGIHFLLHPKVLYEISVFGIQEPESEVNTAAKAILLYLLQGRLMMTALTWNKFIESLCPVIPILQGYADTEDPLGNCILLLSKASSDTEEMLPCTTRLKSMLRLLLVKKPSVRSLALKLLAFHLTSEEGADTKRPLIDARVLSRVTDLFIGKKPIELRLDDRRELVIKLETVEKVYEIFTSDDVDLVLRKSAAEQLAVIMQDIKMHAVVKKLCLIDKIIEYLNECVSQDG

Results are given in words; binding and its absence hold for the method and conditions named. In cells and extracts the contact can be indirect. Some entries that bind do so weakly or less than the wild type. Tags and fused reporters may be left off the sequences shown.

B1: GFP-tagged full-length STIL (protein, UniProt Q15468-2 1-1288)
chain: MEPIYPFARPQMNTRFPSSRMVPFHFPPSKCALWNPTPTGDFIYLHLSYYRNPKLVVTEKTIRLAYRHAKQNKKNSSCFLLGSLTADEDEEGVTLTVDRFDPGREVPECLEITPTASLPGDFLIPCKVHTQELCSREMIVHSVDDFSSALKALQCHICSKDSLDCGKLLSLRVHITSRESLDSVEFDLHWAAVTLANNFKCTPVKPIPIIPTALARNLSSNLNISQVQGTYKYGYLTMDETRKLLLLLESDPKVYSLPLVGIWLSGITHIYSPQVWACCLRYIFNSSVQERVFSESGNFIIVLYSMTHKEPEFYECFPCDGKIPDFRFQLLTSKETLHLFKNVEPPDKNPIRCELSAESQNAETEFFSKASKNFSIKRSSQKLSSGKMPIHDHDSGVEDEDFSPRPIPSPHPVSQKISKIQPSVPELSLVLDGNFIESNPLPTPLEMVNNENPPLINHLEHLKPLQPQLYDEKHSPEVEAGEPSLRGIPNQLNQDKPALLRHCKVRQPPAYKKGNPHTRNSIKPSSHNGPSHDIFEKLQTVSAGNVQNEEYPIRPSTLNSRQSSLAPQSQPHDFVFSPHNSGRPMELQIPTPPLPSYCSTNVCRCCQHHSHIQYSPLNSWQGANTVGSIQDVQSEALQKHSLFHPSGCPALYCNAFCSSSSPIALRPQGDMGSCSPHSNIEPSPVARPPSHMDLCNPQPCTVCMHTPKTESDNGMMGLSPDAYRFLTEQDRQLRLLQAQIQRLLEAQSLMPCSPKTTAVEDTVQAGRQMELVSVEAQSSPGLHMRKGVSIAVSTGASLFWNAAGEDQEPDSQMKQDDTKISSEDMNFSVDINNEVTSLPGSASSLKAVDIPSFEESNIAVEEEFNQPLSVSNSSSLVVRKEPDVPVFFPSGQLAESVSMCLQTGPTGGASNNSETSEEPKIEHVMQPLLHQPSDNQKIYQDLLGQVNHLLNSSSKETEQPSTKAVIISHECTRTQNVYHTKKKTHHSRLVDKDCVLNATLKQLRSLGVKIDSPTKVKKNAHNVDHASVLACISPEAVISGLNCMSFANVGMSGLSPNGVDLSMEANAIALKYLNENQLSQLSVTRSNQNNCDPFSLLHINTDRSTVGLSLISPNNMSFATKKYMKRYGLLQSSDNSEDEEEPPDNADSKSEYLLNQNLRSIPEQLGGQKEPSKNDHEIINCSNCESVGTNADTPVLRNITNEVLQTKAKQQLTEKPAFLVKNLKPSPAVNLRTGKAEFTQHPEKENEGDITIFPESLQPSETLKQMNSMNSVGTFLDVKRLRQLPKLF
Regarding B1, the binding entry in experiment [1] is recorded as “no binding”; in experiment [2], “no binding”; in experiment [3] it was “binds”.
